Experimental data from patent publication US12600732B2, “Bifunctional compounds for degrading BTK via ubiquitin proteosome pathway” (NURIX THERAPEUTICS, INC., priority 2019, dated 2026).
At least one compound was matched to its structure with a doubt left.

Assays:
primary human T cells [1] = assay: T cell activation assay, CD25 and CD69 staining (flow cytometry); assay type: cell-based
Experimental: (§1) This example evaluates whether CTMs with IMiD activity affect T cell activation. […] These assays were performed to assess whether BTK CTMs with and without IMiD activity affected activation of primary human T cells after stimulation of the T cell receptor with anti-CD3/ati-CD28 stimulation. T cell activation was measured by IL-2 secretion (ELISA assay) and upregulation of activation markers CD25 and CD69 on the surface of T cells (flow cytometry). Data are presented as the fold-change of response relative to baseline (stimulation with anti-CD3/anti-CD28 stimulation in the absence of compound).

primary human T cells [2] = assay: T cell activation assay, IL-2 secretion (ELISA); assay type: cell-based
Experimental: as §1

## C=CC(=O)N1CCC[C@@H](n2nc(-c3ccc(Oc4ccccc4)cc3)c3c(N)ncnc32)C1 [Ibrutinib, reference compound]
Primary human T cells [1]
  expression of CD25 and CD69 compared to baseline (anti-CD3/anti-CD28 stimulation alone): decreases
Primary human T cells [2]
  IL-2 secretion compared to baseline (anti-CD3/anti-CD28 stimulation alone): decreases
